Source: paper PMC4873976, “Structural basis for haem piracy from host haemopexin by Haemophilus influenzae” (Nature Communications, 2016)
No constants are given. Whether binding was seen depends on the method and setting. Some binding calls cover weakened binding; strength is not graded here.

The chains behind the UniProt entries cited, without tags or fusion partners. Residues count along the entry.
UniProt P44602, residues 22-905: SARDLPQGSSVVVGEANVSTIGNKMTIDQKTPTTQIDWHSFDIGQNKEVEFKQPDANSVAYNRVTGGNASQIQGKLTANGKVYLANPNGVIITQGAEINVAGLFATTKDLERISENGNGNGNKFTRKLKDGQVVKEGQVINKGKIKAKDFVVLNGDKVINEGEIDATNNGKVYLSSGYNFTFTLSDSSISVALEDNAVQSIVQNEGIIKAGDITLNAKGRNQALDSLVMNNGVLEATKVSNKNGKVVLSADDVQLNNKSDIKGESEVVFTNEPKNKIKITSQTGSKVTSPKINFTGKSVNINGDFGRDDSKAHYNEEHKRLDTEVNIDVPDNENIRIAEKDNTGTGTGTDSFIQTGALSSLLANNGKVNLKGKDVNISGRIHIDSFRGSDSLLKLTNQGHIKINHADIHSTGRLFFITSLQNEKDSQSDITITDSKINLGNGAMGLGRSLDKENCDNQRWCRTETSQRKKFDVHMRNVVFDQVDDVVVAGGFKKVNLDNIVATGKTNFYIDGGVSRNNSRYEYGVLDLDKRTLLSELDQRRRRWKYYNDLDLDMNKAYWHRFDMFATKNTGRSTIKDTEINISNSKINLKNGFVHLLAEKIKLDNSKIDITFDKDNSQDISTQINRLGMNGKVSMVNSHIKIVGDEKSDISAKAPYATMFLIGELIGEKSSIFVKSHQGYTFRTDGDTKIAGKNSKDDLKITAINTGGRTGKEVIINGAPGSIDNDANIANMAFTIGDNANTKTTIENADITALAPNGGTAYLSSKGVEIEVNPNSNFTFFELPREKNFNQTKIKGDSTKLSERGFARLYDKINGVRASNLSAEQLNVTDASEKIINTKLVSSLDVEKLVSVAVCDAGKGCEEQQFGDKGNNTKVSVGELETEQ

Molecular target: wild-type HxuA on whole E. coli cells (hxuCBA context) (Haemophilus influenzae) (UniProt P44602)
Experiment: far-Western, overlay or dot blot; whole cells expressing HxuA or its mutants spotted on nitrocellulose, incubated 1 h with 0.1 μM biotinylated haemopexin in TBST, revealed with streptavidin-HRP; only the binder purified

B1: biotinylated rabbit haemopexin (protein, UniProt P20058 26-460)
chain: VPLTSAHGNVTEGESGTKPEADVIEQCSDGWSFDATTLDDNGTMLFFKDEFVWKSHRGIRELISERWKNFIGPVDAAFRHGHTSVYLIKGDKVWVYTSEKNEKVYPKSLQDEFPGIPFPLDAAVECHRGECQDEGILFFQGNRKWFWDLTTGTKKERSWPAVGNCTSALRWLGRYYCFQGNQFLRFNPVSGEVPPGYPLDVRDYFLSCPGRGHRSSHRNSTQHGHESTRCDPDLVLSAMVSDNHGATYVFSGSHYWRLDTNRDGWHSWPIAHQWPQGPSTVDAAFSWEDKLYLIQDTKVYVFLTKGGYTLVNGYPKRLEKELGSPPVISLEAVDAAFVCPGSSRLHIMAGRRLWWLDLKSGAQATWTELPWPHEKVDGALCMEKPLGPNSCSTSGPNLYLIHGPNLYCYRHVDKLNAAKNLPQPQRVSRLLGCTH
modifications: biotin (4,5 biotin molecules/haemopexin molecule)
B1 was tested, and the binding was “binds”.
